No constants are given. Whether binding was seen depends on the method and setting. Some results given as binding are weak or reduced against the parent protein; the word gives no strength. Where a sequence is shown, tags or fusion partners need not be part of it.
Tests used:
[1] = target: T1, histidin-tagged extracellular domain (ECD) of murine TLR2, mTLR2 25-587-His (murine) (UniProt Q9QUN7); assay: negative stain EM density map with docked structures, overlay with TLR2/TLR1 and TLR2/TLR6 complexes
T1 sequence: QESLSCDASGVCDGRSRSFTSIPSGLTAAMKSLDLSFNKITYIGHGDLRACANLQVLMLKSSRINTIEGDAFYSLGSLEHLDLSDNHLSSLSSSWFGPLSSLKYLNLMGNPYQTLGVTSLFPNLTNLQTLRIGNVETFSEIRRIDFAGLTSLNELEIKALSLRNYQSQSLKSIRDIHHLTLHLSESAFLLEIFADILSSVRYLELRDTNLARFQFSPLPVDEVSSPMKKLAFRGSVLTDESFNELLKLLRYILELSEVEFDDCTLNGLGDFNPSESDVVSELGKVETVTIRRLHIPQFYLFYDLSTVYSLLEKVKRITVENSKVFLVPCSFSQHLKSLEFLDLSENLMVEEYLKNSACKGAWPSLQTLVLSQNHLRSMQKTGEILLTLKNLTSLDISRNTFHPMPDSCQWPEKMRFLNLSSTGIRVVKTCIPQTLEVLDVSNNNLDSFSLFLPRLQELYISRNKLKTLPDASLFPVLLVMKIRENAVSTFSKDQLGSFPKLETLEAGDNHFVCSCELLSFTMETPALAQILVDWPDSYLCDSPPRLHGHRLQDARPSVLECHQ

[2] = target: T1, histidin-tagged extracellular domain (ECD) of murine TLR2, mTLR2 25-587-His (murine); assay: complex formation and purification for negative stain EM

binding [1]: binds | binding [2]: binds
B1: OPN-305 Fab (Fab, V domains shown)
VH: QVQLVQSGSELKKPGASVKLSCKASGFTFTTYGINWVRQAPGQGLEWIGWIYPRDGSTNFNENFKDRATITVDTSASTAYMELSSLRSEDTAVYFCARLTGGTFLDYWGQGTTVTVSS
VL: DIVLTQSPATLSLSPGERATLSCRASESVEYYGTSLMQWYQQKPGQPPKLLIFGASNVESGVPDRFSGSGSGTDFTLKISRVEAEDVGMYFCQQSRKLPWTFGGGTKVEIK
